{"source": "patent US7572762B1", "about": "“Materials and methods relating to the induction of apoptosis in target cells” (University of Dundee, priority 1998, dated 2009)", "tested_on": "p53 null lung carcinoma (H1299) cells", "experiment": "FACS analysis of apoptosis and cell cycle, H1299 cells", "type": "cell-based, human", "settings": "each agent alone, sublethal: trans-U50488 0.1 mM; rimcazole 0.01 mM", "description": "FIG. 8 illustrates a representative FACS (fluorescence activated cell sorting) profile obtained from the experiment indicated; horizontal axis denote DNA content of the cells and the vertical axis the numbers of cells that have a particular DNA content. Apoptotic cells have a subnormal DNA content and are represented as a peak to the extreme left of the profile (sub-G1); viable cells are represented in G1 and G2/M peaks which correspond to these phases of the cell cycle. Where percentages are provided, these indicate cells in sub-G1, G1 or G2/M phases, as indicated, as a percent of the total cell population. In all cases, the existence of apoptotic cells was confirmed by additional means such as microscopic examination.\nBar charts show quantitative data obtained from representative FACS analyses for the experiments indicated. In all cases, numbers of cells that are apoptotic (sub-G1), as a percentage of the total cell population, are depicted by diagonal-hatched bars; numbers of cells that are viable and in G1 (G1/S) phase of the cell cycle, as a percentage of the total cell population, are depicted by stippled bars; viable cells in G2/M phase of the cell cycle are depicted by horizontal-hatched bars. […]", "note": "Some results were stated once for a whole list of compounds, not compound by compound.", "data": [{"smiles": "C[C@@H]1CN(CCCn2c3ccccc3c3ccccc32)C[C@H](C)N1", "note": "[rimcazole, cis-9-[3-(3,5-Dimethyl-1-piperazinyl)propyl]-9H-carbazole]", "values": [{"measurement": "apoptosis", "result": "4-6%"}]}]}
